# Data as given in the supplement of paper PMC12823440, “Inhibitors supercharge kinase turnover through native proteolytic circuits” (Nature, 2025).
# Chains of the proteins cited; added tags and fusions are not shown. Lines headed by an entry give the natural chain unless they say otherwise; changes in a name come on top.
# UniProt O75460: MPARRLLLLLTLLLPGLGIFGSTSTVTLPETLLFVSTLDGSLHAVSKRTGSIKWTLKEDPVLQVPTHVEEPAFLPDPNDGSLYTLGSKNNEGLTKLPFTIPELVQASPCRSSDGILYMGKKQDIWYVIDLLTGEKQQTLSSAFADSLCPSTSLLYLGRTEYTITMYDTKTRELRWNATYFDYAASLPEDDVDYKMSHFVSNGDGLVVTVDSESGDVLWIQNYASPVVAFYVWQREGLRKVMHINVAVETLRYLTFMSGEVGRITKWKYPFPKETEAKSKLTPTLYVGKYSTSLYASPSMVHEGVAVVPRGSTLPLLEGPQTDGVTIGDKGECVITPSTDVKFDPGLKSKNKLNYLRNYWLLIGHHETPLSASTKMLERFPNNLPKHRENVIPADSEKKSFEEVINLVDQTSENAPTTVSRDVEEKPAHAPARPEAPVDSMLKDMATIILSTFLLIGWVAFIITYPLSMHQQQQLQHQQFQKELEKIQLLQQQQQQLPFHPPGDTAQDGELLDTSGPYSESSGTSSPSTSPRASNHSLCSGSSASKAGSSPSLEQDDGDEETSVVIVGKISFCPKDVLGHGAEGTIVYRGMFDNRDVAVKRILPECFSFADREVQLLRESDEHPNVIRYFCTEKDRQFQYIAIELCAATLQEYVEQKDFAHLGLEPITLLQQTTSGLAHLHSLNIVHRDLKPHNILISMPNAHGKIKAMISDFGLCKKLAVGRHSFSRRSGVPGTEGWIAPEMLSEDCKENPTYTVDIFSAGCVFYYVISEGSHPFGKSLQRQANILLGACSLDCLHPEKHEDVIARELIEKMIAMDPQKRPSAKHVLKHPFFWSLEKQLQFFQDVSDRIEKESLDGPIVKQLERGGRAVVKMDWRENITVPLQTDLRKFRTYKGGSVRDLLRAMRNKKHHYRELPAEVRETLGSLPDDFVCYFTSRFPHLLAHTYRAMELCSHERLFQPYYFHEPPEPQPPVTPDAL
# UniProt P11362, whole entry, looked up: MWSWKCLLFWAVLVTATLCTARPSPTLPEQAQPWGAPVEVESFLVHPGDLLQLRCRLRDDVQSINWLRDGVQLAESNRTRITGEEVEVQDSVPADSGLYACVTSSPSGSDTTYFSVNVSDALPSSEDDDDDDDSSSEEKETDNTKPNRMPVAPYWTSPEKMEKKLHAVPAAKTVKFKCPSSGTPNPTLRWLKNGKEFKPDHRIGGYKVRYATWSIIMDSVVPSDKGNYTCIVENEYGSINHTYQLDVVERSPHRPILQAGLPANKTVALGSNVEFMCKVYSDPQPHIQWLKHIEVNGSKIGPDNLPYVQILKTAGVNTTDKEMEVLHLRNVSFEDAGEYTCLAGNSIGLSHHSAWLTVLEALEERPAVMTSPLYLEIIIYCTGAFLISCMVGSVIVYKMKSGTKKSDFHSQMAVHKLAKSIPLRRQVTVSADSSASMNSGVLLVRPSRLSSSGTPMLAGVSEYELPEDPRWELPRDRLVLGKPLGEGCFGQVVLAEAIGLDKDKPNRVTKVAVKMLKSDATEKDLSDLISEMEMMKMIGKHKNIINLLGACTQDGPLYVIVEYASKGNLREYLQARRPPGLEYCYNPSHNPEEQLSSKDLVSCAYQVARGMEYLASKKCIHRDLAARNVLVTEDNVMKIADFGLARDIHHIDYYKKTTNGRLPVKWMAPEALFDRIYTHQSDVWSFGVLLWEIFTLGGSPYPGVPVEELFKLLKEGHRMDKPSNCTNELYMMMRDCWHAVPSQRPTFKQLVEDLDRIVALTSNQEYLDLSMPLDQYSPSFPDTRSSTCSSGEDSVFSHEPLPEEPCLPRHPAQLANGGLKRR
# UniProt P21802, whole entry, looked up: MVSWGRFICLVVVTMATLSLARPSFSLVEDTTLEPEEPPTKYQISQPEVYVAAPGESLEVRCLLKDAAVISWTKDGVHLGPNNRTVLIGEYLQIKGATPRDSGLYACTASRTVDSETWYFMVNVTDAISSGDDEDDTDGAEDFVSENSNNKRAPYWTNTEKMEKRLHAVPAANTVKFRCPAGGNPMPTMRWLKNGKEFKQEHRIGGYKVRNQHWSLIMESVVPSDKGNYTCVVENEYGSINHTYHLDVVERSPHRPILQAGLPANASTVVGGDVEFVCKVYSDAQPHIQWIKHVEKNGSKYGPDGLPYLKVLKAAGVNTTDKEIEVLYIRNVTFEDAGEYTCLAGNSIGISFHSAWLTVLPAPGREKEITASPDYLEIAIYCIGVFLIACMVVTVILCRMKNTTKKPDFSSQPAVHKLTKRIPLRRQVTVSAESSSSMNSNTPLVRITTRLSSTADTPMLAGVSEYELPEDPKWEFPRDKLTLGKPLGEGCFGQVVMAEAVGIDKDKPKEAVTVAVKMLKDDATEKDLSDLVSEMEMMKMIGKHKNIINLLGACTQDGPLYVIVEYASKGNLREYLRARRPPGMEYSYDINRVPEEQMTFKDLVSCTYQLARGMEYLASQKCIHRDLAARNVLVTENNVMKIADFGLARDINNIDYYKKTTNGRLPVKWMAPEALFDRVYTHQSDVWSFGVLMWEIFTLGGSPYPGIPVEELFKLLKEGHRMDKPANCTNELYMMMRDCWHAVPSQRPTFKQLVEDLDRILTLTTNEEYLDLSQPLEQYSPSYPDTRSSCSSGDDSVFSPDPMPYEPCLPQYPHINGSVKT
# UniProt P22607, whole entry, looked up: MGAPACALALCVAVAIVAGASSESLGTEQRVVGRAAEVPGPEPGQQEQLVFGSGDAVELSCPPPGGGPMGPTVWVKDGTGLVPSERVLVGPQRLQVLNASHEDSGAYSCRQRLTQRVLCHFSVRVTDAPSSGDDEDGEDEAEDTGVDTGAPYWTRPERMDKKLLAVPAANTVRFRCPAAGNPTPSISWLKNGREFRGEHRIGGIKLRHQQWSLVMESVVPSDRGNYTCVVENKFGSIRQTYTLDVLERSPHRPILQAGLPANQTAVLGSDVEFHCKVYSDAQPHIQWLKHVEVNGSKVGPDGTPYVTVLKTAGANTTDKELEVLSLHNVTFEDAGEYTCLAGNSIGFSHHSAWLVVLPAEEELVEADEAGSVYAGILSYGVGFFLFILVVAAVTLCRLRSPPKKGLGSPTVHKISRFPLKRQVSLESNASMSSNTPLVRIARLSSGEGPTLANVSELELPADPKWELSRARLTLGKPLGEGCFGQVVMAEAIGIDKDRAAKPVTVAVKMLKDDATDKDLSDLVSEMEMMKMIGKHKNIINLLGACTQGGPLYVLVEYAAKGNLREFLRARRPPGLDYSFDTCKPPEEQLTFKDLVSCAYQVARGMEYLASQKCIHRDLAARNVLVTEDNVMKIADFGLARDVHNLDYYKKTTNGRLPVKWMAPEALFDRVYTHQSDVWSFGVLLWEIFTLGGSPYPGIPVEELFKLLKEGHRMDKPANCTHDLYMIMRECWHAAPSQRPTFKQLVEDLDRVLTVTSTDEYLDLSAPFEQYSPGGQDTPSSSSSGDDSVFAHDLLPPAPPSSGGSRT
# UniProt P36888, whole entry: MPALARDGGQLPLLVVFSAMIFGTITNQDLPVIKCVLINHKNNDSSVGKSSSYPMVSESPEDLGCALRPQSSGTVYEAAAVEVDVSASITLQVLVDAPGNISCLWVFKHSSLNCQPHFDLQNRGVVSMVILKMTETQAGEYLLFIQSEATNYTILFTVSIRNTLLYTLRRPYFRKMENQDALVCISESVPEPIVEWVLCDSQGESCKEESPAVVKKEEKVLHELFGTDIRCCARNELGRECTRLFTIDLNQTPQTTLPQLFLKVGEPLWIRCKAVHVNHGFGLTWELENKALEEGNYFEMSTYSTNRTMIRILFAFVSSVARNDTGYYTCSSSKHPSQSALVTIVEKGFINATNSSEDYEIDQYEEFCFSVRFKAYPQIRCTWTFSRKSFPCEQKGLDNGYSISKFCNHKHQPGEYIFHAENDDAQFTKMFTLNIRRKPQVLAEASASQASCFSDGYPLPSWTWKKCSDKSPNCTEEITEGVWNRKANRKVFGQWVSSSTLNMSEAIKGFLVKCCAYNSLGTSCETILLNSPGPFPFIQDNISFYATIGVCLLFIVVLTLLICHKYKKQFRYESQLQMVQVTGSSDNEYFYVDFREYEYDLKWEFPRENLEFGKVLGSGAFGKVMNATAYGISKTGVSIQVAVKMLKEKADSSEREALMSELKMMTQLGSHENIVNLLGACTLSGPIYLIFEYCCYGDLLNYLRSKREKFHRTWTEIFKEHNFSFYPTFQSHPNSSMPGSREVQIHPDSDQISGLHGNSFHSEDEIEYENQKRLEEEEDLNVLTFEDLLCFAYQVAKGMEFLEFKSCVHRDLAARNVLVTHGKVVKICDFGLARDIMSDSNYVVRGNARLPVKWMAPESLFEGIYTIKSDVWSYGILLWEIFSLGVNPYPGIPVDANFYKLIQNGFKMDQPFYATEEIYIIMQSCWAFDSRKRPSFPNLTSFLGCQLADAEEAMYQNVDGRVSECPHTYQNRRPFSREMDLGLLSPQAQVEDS
# UniProt P06241, whole entry, looked up: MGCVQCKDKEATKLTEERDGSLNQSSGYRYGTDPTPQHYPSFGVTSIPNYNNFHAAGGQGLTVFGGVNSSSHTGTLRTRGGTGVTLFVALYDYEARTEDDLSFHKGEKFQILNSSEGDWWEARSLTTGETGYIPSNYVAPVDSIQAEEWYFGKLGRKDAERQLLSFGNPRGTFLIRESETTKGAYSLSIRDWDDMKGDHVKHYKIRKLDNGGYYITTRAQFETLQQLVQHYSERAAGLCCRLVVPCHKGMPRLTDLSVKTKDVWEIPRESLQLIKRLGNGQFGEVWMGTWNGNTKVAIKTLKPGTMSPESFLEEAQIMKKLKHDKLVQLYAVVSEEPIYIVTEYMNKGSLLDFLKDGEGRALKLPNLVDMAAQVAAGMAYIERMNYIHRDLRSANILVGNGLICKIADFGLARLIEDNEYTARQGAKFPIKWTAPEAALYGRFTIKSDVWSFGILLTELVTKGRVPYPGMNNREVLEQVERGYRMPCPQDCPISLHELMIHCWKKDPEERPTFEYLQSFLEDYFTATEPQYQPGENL
# UniProt P49840: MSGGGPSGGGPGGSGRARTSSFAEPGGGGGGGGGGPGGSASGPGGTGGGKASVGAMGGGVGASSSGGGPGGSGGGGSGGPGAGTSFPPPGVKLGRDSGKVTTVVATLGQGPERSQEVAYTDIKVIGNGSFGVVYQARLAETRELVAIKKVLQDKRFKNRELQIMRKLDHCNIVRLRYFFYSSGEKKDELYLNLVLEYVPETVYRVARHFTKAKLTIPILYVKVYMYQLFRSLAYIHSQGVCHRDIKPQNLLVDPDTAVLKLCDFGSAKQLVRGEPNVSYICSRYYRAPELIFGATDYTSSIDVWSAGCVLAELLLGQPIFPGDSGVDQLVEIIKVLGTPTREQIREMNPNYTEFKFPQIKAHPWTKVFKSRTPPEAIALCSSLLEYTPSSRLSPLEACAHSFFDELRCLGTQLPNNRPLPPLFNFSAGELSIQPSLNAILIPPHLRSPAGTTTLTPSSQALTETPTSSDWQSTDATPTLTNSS
# Structures can show the parent of a compound that is named as a salt. This is one part of the list. Hit calls seldom repeat between salt and free forms of one compound.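 Kinases, fused to nanoluciferase, were expressed in K562 cells; luminescence was measured every 4 h from 2 to 18 h as percent of control (DMSO = 100%, positive control = 0%). A time point is decreased if signal falls significantly (2 sigma). Hits were called by the authors by a rule that is not shown; the count of time points alone does not decide it.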
# Key:
# Experiment in all cases: kinase-Nluc reporter destabilization hit call (1 = scored as downregulated) (binary); higher = compound decreases kinase abundance
# Settings in all cases: K562; 2-18 h
# [1] = biological target: ERN1 (UniProt O75460)
# [2] = biological target: FGFR1 (UniProt P11362)
# [3] = biological target: FGFR2 (UniProt P21802)
# [4] = biological target: FGFR3 (UniProt P22607)
# [5] = biological target: FGR (UniProt P09769)
# [6] = biological target: FLT3 (UniProt P36888)
# [7] = biological target: FYN (UniProt P06241)
# [8] = biological target: GSK3A (UniProt P49840)
# [9] = biological target: HER2 (UniProt P04626)
# [10] = biological target: INSRR (UniProt P14616)
SMILES,kinase-Nluc reporter destabilization hit call [1],kinase-Nluc reporter destabilization hit call [2],kinase-Nluc reporter destabilization hit call [3],kinase-Nluc reporter destabilization hit call [4],kinase-Nluc reporter destabilization hit call [5],kinase-Nluc reporter destabilization hit call [6],kinase-Nluc reporter destabilization hit call [7],kinase-Nluc reporter destabilization hit call [8],kinase-Nluc reporter destabilization hit call [9],kinase-Nluc reporter destabilization hit call [10]
Cc1cc(CS(=O)(=O)c2ccccc2)cc(OCc2ccc(CN3CCC[C@@H]3CO)cc2)c1 [PF-543 (Citrate)] (10 µM),inactive: 0,inactive: 0,inactive: 0,inactive: 0,inactive: 0,inactive: 0,inactive: 0,inactive: 0,inactive: 0,inactive: 0
COc1cc(C(=O)NC2CCN(C)CC2)c(F)cc1Nc1ncc2c(n1)N(C1CCCC1)CC(F)(F)C(=O)N2C [TAK-960 (dihydrochloride)] (2.5 µM),inactive: 0,inactive: 0,inactive: 0,inactive: 0,inactive: 0,inactive: 0,inactive: 0,inactive: 0,inactive: 0,inactive: 0
NS(=O)(=O)c1ccc(Nc2nc(OCC3CCCCC3)c3[nH]cnc3n2)cc1 (10 µM),inactive: 0,inactive: 0,inactive: 0,inactive: 0,inactive: 0,inactive: 0,inactive: 0,inactive: 0,inactive: 0,inactive: 0
Nc1nc(OCC2CCCCC2)c2[nH]cnc2n1 (10 µM),inactive: 0,inactive: 0,inactive: 0,inactive: 0,inactive: 0,inactive: 0,inactive: 0,inactive: 0,inactive: 0,inactive: 0
CC[C@H](CO)Nc1nc(NCc2ccccc2)c2ncn(C(C)C)c2n1 [Seliciclib] (10 µM),inactive: 0,inactive: 0,inactive: 0,inactive: 0,inactive: 0,inactive: 0,inactive: 0,inactive: 0,inactive: 0,inactive: 0
CNc1nc(-c2ccc3c(N)n[nH]c3c2)cc(N2C[C@@H](C(=O)NC3CCCCC3)CC[C@H]2C)n1 (10 µM),inactive: 0,inactive: 0,inactive: 0,inactive: 0,inactive: 0,inactive: 0,inactive: 0,inactive: 0,inactive: 0,inactive: 0
COc1ccc(COc2ccc(Cc3cnc(N)nc3N)cc2OC)cc1 (10 µM),inactive: 0,inactive: 0,inactive: 0,inactive: 0,inactive: 0,inactive: 0,inactive: 0,inactive: 0,inactive: 0,inactive: 0
Nc1ncnc2c1c(-c1ccc(Oc3ccccc3)cc1)cn2C1CCCC1 (2.5 µM),inactive: 0,inactive: 0,inactive: 0,inactive: 0,inactive: 0,inactive: 0,inactive: 0,inactive: 0,inactive: 0,inactive: 0
COc1ccc(C=C(C#N)c2cccnc2)cc1OC (10 µM),inactive: 0,inactive: 0,inactive: 0,inactive: 0,inactive: 0,inactive: 0,inactive: 0,inactive: 0,inactive: 0,inactive: 0
CN1CCN(c2ccc(Nc3cc(-c4cccc(-n5ccc6cc(C7CC7)cc(F)c6c5=O)c4CO)cn(C)c3=O)nc2)CC1 (2.5 µM),inactive: 0,inactive: 0,inactive: 0,inactive: 0,inactive: 0,inactive: 0,inactive: 0,inactive: 0,inactive: 0,inactive: 0
Nc1ncnc2c1c(-c1cccc(OCc3ccccc3)c1)cn2C1CC(CN2CCCC2)C1 (centres undefined) (2.5 µM),inactive: 0,inactive: 0,inactive: 0,inactive: 0,inactive: 0,inactive: 0,inactive: 0,inactive: 0,inactive: 0,inactive: 0
Cc1cc(C)c(/C=C2\C(=O)Nc3ccccc32)[nH]1 [Semaxinib] (10 µM),inactive: 0,inactive: 0,inactive: 0,inactive: 0,inactive: 0,inactive: 0,inactive: 0,inactive: 0,inactive: 0,inactive: 0
CNC(=O)c1cccc2cc(Oc3ccnc4cc(OCC5(N)CC5)c(OC)cc34)ccc12 [Lucitanib] (10 µM),inactive: 0,inactive: 0,inactive: 0,inactive: 0,inactive: 0,inactive: 0,inactive: 0,inactive: 0,inactive: 0,inactive: 0
Cc1cc(C(=O)Nc2cccc(C(=O)Nc3cccc(C(F)(F)F)c3)c2)on1 (10 µM),inactive: 0,inactive: 0,inactive: 0,inactive: 0,inactive: 0,inactive: 0,inactive: 0,inactive: 0,inactive: 0,inactive: 0
FC(F)(F)c1ccc(CNc2ccc(Cc3c[nH]c4ncc(Cl)cc34)cn2)cc1 (10 µM),inactive: 0,inactive: 0,inactive: 0,inactive: 0,inactive: 0,inactive: 0,inactive: 0,inactive: 0,inactive: 0,inactive: 0
Cc1ccc(NC(=O)Nc2nnc(Sc3ncnc4cc(OCCCN5CCOCC5)ccc34)s2)cc1 (10 µM),inactive: 0,inactive: 0,inactive: 0,inactive: 0,inactive: 0,inactive: 0,inactive: 0,inactive: 0,inactive: 0,inactive: 0

SMILES,kinase-Nluc reporter destabilization hit call [1],kinase-Nluc reporter destabilization hit call [2],kinase-Nluc reporter destabilization hit call [3],kinase-Nluc reporter destabilization hit call [4],kinase-Nluc reporter destabilization hit call [5],kinase-Nluc reporter destabilization hit call [6],kinase-Nluc reporter destabilization hit call [7],kinase-Nluc reporter destabilization hit call [8],kinase-Nluc reporter destabilization hit call [9],kinase-Nluc reporter destabilization hit call [10]
CC(C)(C)c1nc2c3cc[nH]c(=O)c3c3cc(F)ccc3c2[nH]1 [Pyridone 6] (10 µM),inactive: 0,inactive: 0,inactive: 0,inactive: 0,inactive: 0,inactive: 0,inactive: 0,inactive: 0,inactive: 0,inactive: 0
COc1nccc(-c2c(-c3ccc(F)cc3)ncn2C2CCC(O)CC2)n1 (centres undefined) (10 µM),inactive: 0,inactive: 0,inactive: 0,inactive: 0,inactive: 0,inactive: 0,inactive: 0,inactive: 0,inactive: 0,inactive: 0
COc1cc(Oc2ccnc3cc(OC)c(OC)cc23)ccc1NC(=O)NC(C)c1nccs1 (centres undefined) (2.5 µM),inactive: 0,inactive: 0,inactive: 0,inactive: 0,inactive: 0,inactive: 0,inactive: 0,inactive: 0,inactive: 0,inactive: 0
Cc1cccc(Cn2nc(C3CC3)c3c(NC(=O)c4cnc5cc(OCCN6CCN(C)CC6)ccn45)cccc32)n1 (10 µM),inactive: 0,inactive: 0,inactive: 0,inactive: 0,inactive: 0,inactive: 0,inactive: 0,inactive: 0,inactive: 0,inactive: 0
CN(C)C(=O)/C(C#N)=C/c1ccc(-c2nc3cnc4[nH]ccc4c3n2C2CCCCC2)o1 (10 µM),inactive: 0,inactive: 0,inactive: 0,inactive: 0,inactive: 0,inactive: 0,inactive: 0,inactive: 0,inactive: 0,inactive: 0
O=c1cc(N2CCOCC2)oc2c(-c3ccccc3)cccc12 (10 µM),inactive: 0,inactive: 0,inactive: 0,inactive: 0,inactive: 0,inactive: 0,inactive: 0,inactive: 0,inactive: 0,inactive: 0
CCCCC[C@H](O)CC(=O)CCc1ccc(O)c(OC)c1 [[6]-Gingerol] (10 µM),inactive: 0,inactive: 0,inactive: 0,inactive: 0,inactive: 0,inactive: 0,inactive: 0,inactive: 0,inactive: 0,inactive: 0
Oc1cc(O)cc(/C=C/c2ccc(O)c(O)c2)c1 [Piceatannol] (10 µM),inactive: 0,inactive: 0,inactive: 0,inactive: 0,inactive: 0,inactive: 0,inactive: 0,inactive: 0,inactive: 0,inactive: 0
CCCS(=O)(=O)Nc1ccc(F)c(C(=O)c2c[nH]c3ncc(Cl)cc23)c1F (10 µM),inactive: 0,inactive: 0,inactive: 0,inactive: 0,inactive: 0,inactive: 0,inactive: 0,inactive: 0,inactive: 0,inactive: 0
O=c1oc2ccccc2c(O)c1Cc1c(O)c2ccccc2oc1=O [Dicoumarol] (10 µM),inactive: 0,inactive: 0,inactive: 0,inactive: 0,inactive: 0,inactive: 0,inactive: 0,inactive: 0,inactive: 0,inactive: 0
COc1ccc(Oc2cc(NCCC(F)(F)F)c3ncc(-c4ccc(C(=O)NC5CC5)c(C)c4)n3n2)c(F)c1F (2.5 µM),inactive: 0,inactive: 0,inactive: 0,inactive: 0,inactive: 0,inactive: 0,inactive: 0,inactive: 0,inactive: 0,inactive: 0
O=C1c2ccccc2-c2n[nH]c3cccc1c23 (10 µM),inactive: 0,inactive: 0,inactive: 0,inactive: 0,inactive: 0,inactive: 0,inactive: 0,inactive: 0,inactive: 0,inactive: 0
CCC(=O)N1CCN(c2ccc(-n3c(=O)ccc4cnc5ccc(-c6cnc7ccccc7c6)cc5c43)cc2C(F)(F)F)CC1 [Torin 1] (2 µM),inactive: 0,inactive: 0,active: 1,inactive: 0,inactive: 0,inactive: 0,inactive: 0,inactive: 0,inactive: 0,inactive: 0
CCN1CCN(c2ccc(Nc3cc(N(C)C(=O)Nc4c(Cl)c(OC)cc(OC)c4Cl)ncn3)cc2)CC1 [Infigratinib] (10 µM),inactive: 0,inactive: 0,inactive: 0,inactive: 0,inactive: 0,inactive: 0,inactive: 0,inactive: 0,inactive: 0,inactive: 0
Cc1ccc2c(Nc3cccc(OC(F)(F)F)c3)nccc2c1Nc1ncccc1-c1ncnc2[nH]cnc12 (10 µM),inactive: 0,–,inactive: 0,inactive: 0,inactive: 0,inactive: 0,inactive: 0,inactive: 0,inactive: 0,inactive: 0

# Complete entries, looked up by structure. Order of values: kinase-Nluc reporter destabilization hit call [1]	kinase-Nluc reporter destabilization hit call [2]	kinase-Nluc reporter destabilization hit call [3]	kinase-Nluc reporter destabilization hit call [4]	kinase-Nluc reporter destabilization hit call [5]	kinase-Nluc reporter destabilization hit call [6]	kinase-Nluc reporter destabilization hit call [7]	kinase-Nluc reporter destabilization hit call [8]	kinase-Nluc reporter destabilization hit call [9]	kinase-Nluc reporter destabilization hit call [10]
# CCCS(=O)(=O)Nc1ccc(F)c(C(=O)c2c[nH]c3ncc(Cl)cc23)c1F (10 µM) in the list: inactive: 0	inactive: 0	inactive: 0	inactive: 0	inactive: 0	inactive: 0	inactive: 0	inactive: 0	inactive: 0	inactive: 0
# COc1ccc(Oc2cc(NCCC(F)(F)F)c3ncc(-c4ccc(C(=O)NC5CC5)c(C)c4)n3n2)c(F)c1F (2.5 µM) in the list: inactive: 0	inactive: 0	inactive: 0	inactive: 0	inactive: 0	inactive: 0	inactive: 0	inactive: 0	inactive: 0	inactive: 0
